Test results from PubChem BioAssay AID588590 (National Center for Advancing Translational Sciences (NCATS), 2011).
The whole screen tested about 390,000 compounds, of which about 4,000 (1%) were called active. Inconclusive means that the source gave no clear call. Such entries were picked first, then a sample of the others. Calls follow the shape of the dose curve; as a rule, active = well fitted inhibition curve with a large enough effect; inconclusive = small, poorly fitted or top-dose-only effect, or another doubt; inactive = no such curve, though single readings can be large or run the other way. Potencies beside an inconclusive call are fits to weak or partial responses and may not hold up.

By UniProt entry, the sequences of proteins in these tests, tags left out. Where a name states a change or a piece, a line headed by the entry shows the natural chain unless it says otherwise.
UniProt Q9UNA4: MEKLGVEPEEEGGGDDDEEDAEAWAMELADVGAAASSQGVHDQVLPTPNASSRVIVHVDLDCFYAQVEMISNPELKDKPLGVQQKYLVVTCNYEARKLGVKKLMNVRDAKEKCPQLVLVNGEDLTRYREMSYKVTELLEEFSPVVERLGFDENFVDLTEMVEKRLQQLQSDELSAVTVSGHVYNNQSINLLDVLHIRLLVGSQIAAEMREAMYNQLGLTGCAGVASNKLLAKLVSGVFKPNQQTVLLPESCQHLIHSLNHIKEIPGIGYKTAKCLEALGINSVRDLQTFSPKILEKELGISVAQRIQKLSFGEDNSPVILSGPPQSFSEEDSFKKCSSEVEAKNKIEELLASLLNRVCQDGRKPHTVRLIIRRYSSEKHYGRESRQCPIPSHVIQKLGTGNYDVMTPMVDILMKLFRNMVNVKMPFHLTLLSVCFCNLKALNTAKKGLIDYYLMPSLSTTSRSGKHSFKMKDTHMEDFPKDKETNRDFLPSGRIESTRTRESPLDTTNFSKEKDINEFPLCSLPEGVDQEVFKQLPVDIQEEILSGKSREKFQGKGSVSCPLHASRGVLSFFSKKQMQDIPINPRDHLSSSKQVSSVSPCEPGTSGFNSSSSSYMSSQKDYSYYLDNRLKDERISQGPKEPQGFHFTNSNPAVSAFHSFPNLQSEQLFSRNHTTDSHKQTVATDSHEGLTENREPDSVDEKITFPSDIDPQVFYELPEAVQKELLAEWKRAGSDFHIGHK

target: DNA polymerase iota (Homo sapiens) (UniProt Q9UNA4); assay: qHTS for Inhibitors of Polymerase Iota; conditions: Pol iota fluorescent replication assay, 10 min; series mostly up to 115 µM
How it was run: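 Fluorescent replication assay read twice, at 0 min and 10 min after adding 50 nM (final) substrate. Enzyme (10 nM) and compounds were first incubated 15 min at room temperature; enzyme-free buffer wells were negative controls.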
Potency is read from the fitted curve at half-maximal effect.

Potency, active:
O=C(N/N=C/c1ccoc1)c1cc(Br)ccc1O 89.1 µM
CN(CC(=O)Nc1cccc(F)c1)C(=O)c1ccc(OCc2cn3ccccc3n2)cc1 44.7 µM
O=C(OC1CCOC1=O)c1ccccc1C(=O)c1ccc(Cl)c([N+](=O)[O-])c1 (configuration not stated) 39.8 µM

Potency, inconclusive:
Oc1c(C=Nc2cccc3nsnc23)ccc2ccccc12 3.16 µM [inhibitor, full curve, poor fit]
O=C(O)CN(CC(=O)O)CC(=O)O 25.1 µM [inhibitor, full curve, poor fit]
CCNC(=O)CSc1nnc(-c2cccc(S(=O)(=O)N(CC)CC)c2)n1CCc1ccccc1 28.2 µM [inhibitor, partial curve, poor fit]
C#CCOCCOCCOCCNc1nc(N2CCN(C(=O)CCCCCCCCCCNC(=O)Cn3cc(C[C@@H](C)O)nn3)CC2)nc(N2CCN(C(=O)CCCCCCCCCCNC(=O)[C@H](CCCCN)n3cc(C[C@@H](C)CC)nn3)CC2)n1 22.4 µM [inhibitor, full curve, poor fit]
CCOC(=O)c1ccc(NC(=O)COc2cc3oc(=O)c(CC(C)O)c(C)c3cc2Cl)cc1 (configuration not stated) 79.4 µM [inhibitor, single point]
O=C1CSC(=S)N1c1cccc(Br)c1 28.2 µM [inhibitor, partial curve, poor fit]
CC(SC#N)C(=O)C12CC3CC(CC(C3)C1)C2 (configuration not stated) 28.2 µM [inhibitor, partial curve, poor fit]
CCc1ccc(-n2nc3cc(C)c(NC(=O)c4cc(OC)cc(OC)c4)cc3n2)cc1 89.1 µM [inhibitor, single point]
CCCNC(=O)c1cc(S(=O)(=O)N2CCCCC2)c[nH]1 1.26 µM [inhibitor, partial curve, poor fit]
O=C1N/C(=C/c2ccco2)C(=O)N1Cc1ccccc1F 20 µM [inhibitor, full curve, poor fit]
O=C(Nc1ccc(N2CCOCC2)c2nonc12)C1CCCC1 11.2 µM [inhibitor, single point]
CCCCn1c(=O)[nH]c(=O)c2c1nc(-c1cccc(OC)c1)n2C 3.55 µM [inhibitor, full curve, poor fit]
CSc1cc(-c2ccc(Cl)cc2)c(C(=O)NN)s1 22.4 µM [inhibitor, partial curve, poor fit]
CCN(C[C@H]1N[C@@](CC)(C(=O)OC)[C@H]2C(=O)N(C)C(=O)[C@@H]12)S(=O)(=O)c1ccc(OC(F)(F)F)cc1 1.58 µM [inhibitor, full curve, poor fit]
COc1cc2c[n+](C)c3c4ccccc4ccc3c2cc1OC 56.2 µM [inhibitor, partial curve, poor fit]
COc1ccc(CCN2C(=O)C3C4CC(C5C(C(N)=O)=NOC45)C3C2=O)cc1OC (configuration not stated) 8.91 µM [inhibitor, full curve, poor fit]
O=C(NCc1ccccn1)c1cc(Br)ccc1Cl 89.1 µM [inhibitor, single point]
Nc1c(N2CCN(c3ccccc3)CC2)c2ccccc2oc1=O 44.7 µM [inhibitor, partial curve, poor fit]
COCCCNC(=O)CSc1nc(-c2ccc(OC)c(OC)c2)[nH]c1-c1ccc(F)cc1 89.1 µM [inhibitor, single point]
O=C(NCCc1ccccc1)c1ccc2c(c1)N(Cc1ccccc1)C(=O)CS2=O (configuration not stated) 79.4 µM [inhibitor, partial curve, poor fit]
Cc1ccc(NNS(=O)(=O)c2ccc(C)cc2)cc1 89.1 µM [inhibitor, single point]
Cc1cn(C(=O)c2ccccc2)c(=S)n1-c1ccc(Cl)cc1 39.8 µM [inhibitor, partial curve, poor fit]
CS(=O)(=O)Nc1cccc(C2=NN(C(=O)CCC(=O)O)C(c3cccs3)C2)c1 (configuration not stated) 1.78 µM [inhibitor, full curve, poor fit]
C=CCNC(=O)c1c[nH]c2ccc(S(=O)(=O)N(C)c3ccc(OCC)cc3)cc2c1=O 15.8 µM [inhibitor, partial curve, poor fit]
Oc1ccc(C2Nc3cccc4cccc(c34)N2)c(O)c1 15.8 µM [inhibitor, partial curve, poor fit]
COc1ccc(OCCC(=O)Nc2nccs2)cc1 79.4 µM [inhibitor, partial curve, poor fit]
Cc1ccc(NS(=O)(=O)c2cccc(C(=O)N/N=C/c3ccc4c(c3)OCCO4)c2)c(C)c1 22.4 µM [inhibitor, partial curve, poor fit]
CSc1ccc(/C=C2\C(=N)N3N=C(CC(=O)N4CCOCC4)SC3=NC2=O)cc1 39.8 µM [inhibitor, single point]
C=CC(=O)N1c2ccccc2Sc2ccc(NC(=O)OCC)cc21 12.6 µM [inhibitor, full curve, poor fit]
O=C(NC1CCCCC1)C(c1ccc(F)cc1)N(C(=O)c1csnn1)C1CC1 (configuration not stated) 89.1 µM [inhibitor, single point]
Cc1nn(Cc2ccc(Cl)cc2Cl)c(C)c1NC(=O)NC12CC3CC(CC(C3)C1)C2 11.2 µM [inhibitor, single point]
CCOc1ccc(-c2nnc(SCC(=O)c3ccc(Br)cc3)n2-c2ccccc2)cc1 12.6 µM [inhibitor, partial curve, poor fit]
C#CCOCCOCCOCCNc1nc(N2CCN(C(=O)CCCCCCCCCCNC(=O)[C@H](CCCCN)n3cc(C)nn3)CC2)nc(N2CCN(C(=O)CCCCCCCCCCNC(=O)[C@H](CCCCN)n3cc(CCCC(=O)O)nn3)CC2)n1 28.2 µM [inhibitor, partial curve, poor fit]
COc1ccc2c(c1)c1nc3n(c(=O)c1n2CC(=O)Nc1ccccc1)CCCS3 25.1 µM [inhibitor, full curve, poor fit]
O=C(CSc1nnc(-c2ccco2)n1CC1CCCO1)c1ccc(F)cc1 (configuration not stated) 7.94 µM [inhibitor, single point]
Cc1ccc(S(=O)(=O)NC(=O)c2cc(C)n(CCCN3CCOCC3)c2C)cc1 7.08 µM [inhibitor, full curve, poor fit]
CC1(OC(=O)CCc2ccccc2)C(=O)C=C2C=C(c3ccc(C#N)cc3)N(C3CCCC3)C=C2C1=O (configuration not stated) 31.6 µM [inhibitor, partial curve, poor fit]
O=C(OCC(=O)N1CCN(C(=O)c2ccco2)CC1)c1ccccc1NCCO 56.2 µM [inhibitor, partial curve, poor fit]
C=C1c2cc3c(cc2NC(=S)N1Cc1ccccc1)OCO3 50.1 µM [inhibitor, partial curve, poor fit]
C=CCNC(=S)NNc1nc(N2CCCC2)nc(N2CCCC2)n1 79.4 µM [inhibitor, single point]
Cc1oncc1C(=O)Nc1ccc(C(F)(F)F)cc1 25.1 µM [inhibitor, partial curve]
CCC(CO)Oc1cc(NCc2cccc(C(F)(F)F)c2)c2ncn(C(C)C)c2c1 (configuration not stated) 31.6 µM [inhibitor, single point]
C#CCOc1ccc(/C=C2/C(=O)NN(c3ccc(F)cc3)C2=O)cc1OC 14.1 µM [inhibitor, partial curve]

Three compounds drawn at random from the list so far, as already listed:
Potency, inconclusive:
O=C(NC1CCCCC1)C(c1ccc(F)cc1)N(C(=O)c1csnn1)C1CC1 (configuration not stated) 89.1 µM [inhibitor, single point]
O=C(NCc1ccccn1)c1cc(Br)ccc1Cl 89.1 µM [inhibitor, single point]
Oc1ccc(C2Nc3cccc4cccc(c34)N2)c(O)c1 15.8 µM [inhibitor, partial curve, poor fit]

Following part:

Potency, inactive:
CCN(CC)CCN(C(=O)c1ccco1)c1nc2cc(C)cc(C)c2s1
CCOc1cc(-c2ccc(OC(=O)c3ccc(C)cc3)c(OC)c2)cc(=O)c2c(C)oc(C)c12
COc1ccc(/C=N/Nc2cc(C)nc3c(C)cccc23)cc1
CCN1C(=O)[C@@H]2[C@H](C1=O)[C@@H]1C(=O)Nc3ccccc3C(=O)N1[C@@H]2c1cccc(Cl)c1
COCc1cc(OC)nc(-c2csc(C)n2)n1
C[C@@H](Oc1ccccc1)c1nnn(Cc2ccccc2)c1-c1c([C@@H](C)Oc2ccccc2)nnn1Cc1ccccc1
CC(=O)c1cc(-c2ccccc2)n(CCC(=O)NC(C)c2ccccc2)c1C (configuration not stated)
CC(C)(C)OC(=O)N1CCC(c2c(C(=O)NCc3ccco3)cnn2-c2ccccc2Cl)CC1
CC(/C=C1\SC(=S)N(CCC(=O)Nc2ccccc2O)C1=O)=C\c1ccccc1
CN(C)c1ccc(/C=C2\CCc3cc(N)ccc32)cc1
COC(=O)c1cc2oc3ccccc3c2n1Cc1c(C)cc(C)cc1C
Cc1ccc(C2=NC(c3ccccc3)=Nc3ccc(Cl)cc3N2)cc1
Cc1nc2cccnc2n1-c1cccc(C(=O)NCCc2ccc(S(N)(=O)=O)cc2)c1
COc1ccccc1OCCC(=O)OCC(=O)Nc1ccc(Br)cc1F
CCOC(=O)C1CCCN(c2ncnc3c2nnn3C)C1 (configuration not stated)
C(=N\Nc1ccccc1)/c1ccc(N2CCOCC2)cc1
